Test results published in patent US11696920B2, “Intelligent delivery of ingested and absorbed molecules” (IMMD SP. ZO.O, priority 2016, dated 2023).
For at least one compound, name, drawing or mass did not settle the structure.

Test system: liver lipid metabolism
Assay: Serum LDL cholesterol, DHA and carotenoid-SFA formulations, trial for 4 weeks
Assay type: in vivo, human

CC/C=C\C/C=C\C/C=C\C/C=C\C/C=C\C/C=C\CCC(=O)O [DHA 500 mg, docosahexaenoic acid]
Effect on serum LDL level: did not affected LDL level
